No constants are given. Whether binding was seen depends on the method and setting. Binding seen in cells or lysates may run through a third protein. Some binding calls cover weakened binding; strength is not graded here. For part of these data: Sequences can lack the tags named with a protein.
T1: Recombined murine CD146-His protein (mouse) (UniProt Q8R2Y2)
T1 sequence: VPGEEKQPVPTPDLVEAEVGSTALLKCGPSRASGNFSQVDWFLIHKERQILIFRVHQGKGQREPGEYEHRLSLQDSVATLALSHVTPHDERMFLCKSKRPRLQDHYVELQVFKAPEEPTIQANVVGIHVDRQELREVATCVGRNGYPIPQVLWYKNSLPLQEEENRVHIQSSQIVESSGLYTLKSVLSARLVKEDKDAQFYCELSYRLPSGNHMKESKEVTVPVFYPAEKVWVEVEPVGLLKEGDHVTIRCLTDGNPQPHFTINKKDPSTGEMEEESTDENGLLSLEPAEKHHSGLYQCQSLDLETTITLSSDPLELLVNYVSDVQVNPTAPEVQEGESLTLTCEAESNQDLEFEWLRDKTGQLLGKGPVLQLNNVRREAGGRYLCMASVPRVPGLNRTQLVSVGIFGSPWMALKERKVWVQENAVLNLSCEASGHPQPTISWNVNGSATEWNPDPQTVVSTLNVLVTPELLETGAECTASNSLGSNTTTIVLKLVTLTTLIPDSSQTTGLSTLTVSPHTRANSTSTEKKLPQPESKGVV

Amino acid sequences for entries named in this document (tags omitted).
UniProt Q08857: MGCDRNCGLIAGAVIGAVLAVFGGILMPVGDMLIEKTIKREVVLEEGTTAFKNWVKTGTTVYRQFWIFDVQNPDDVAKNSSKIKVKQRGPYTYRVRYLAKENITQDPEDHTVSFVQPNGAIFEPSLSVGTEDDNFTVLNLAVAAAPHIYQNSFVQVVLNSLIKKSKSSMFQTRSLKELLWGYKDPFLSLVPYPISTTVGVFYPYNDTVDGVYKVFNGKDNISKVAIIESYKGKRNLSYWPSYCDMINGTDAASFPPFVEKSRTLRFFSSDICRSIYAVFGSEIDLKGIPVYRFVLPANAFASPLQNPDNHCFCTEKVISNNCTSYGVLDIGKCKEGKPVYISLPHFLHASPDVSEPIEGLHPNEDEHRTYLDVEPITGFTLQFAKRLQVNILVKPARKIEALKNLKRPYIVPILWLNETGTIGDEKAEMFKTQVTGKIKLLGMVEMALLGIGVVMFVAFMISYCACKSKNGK

T2: CD146 (endogenous, in bone marrow-derived macrophages) (mouse (endogenous in BMDMs)) (UniProt Q8R2Y2)
T2 sequence: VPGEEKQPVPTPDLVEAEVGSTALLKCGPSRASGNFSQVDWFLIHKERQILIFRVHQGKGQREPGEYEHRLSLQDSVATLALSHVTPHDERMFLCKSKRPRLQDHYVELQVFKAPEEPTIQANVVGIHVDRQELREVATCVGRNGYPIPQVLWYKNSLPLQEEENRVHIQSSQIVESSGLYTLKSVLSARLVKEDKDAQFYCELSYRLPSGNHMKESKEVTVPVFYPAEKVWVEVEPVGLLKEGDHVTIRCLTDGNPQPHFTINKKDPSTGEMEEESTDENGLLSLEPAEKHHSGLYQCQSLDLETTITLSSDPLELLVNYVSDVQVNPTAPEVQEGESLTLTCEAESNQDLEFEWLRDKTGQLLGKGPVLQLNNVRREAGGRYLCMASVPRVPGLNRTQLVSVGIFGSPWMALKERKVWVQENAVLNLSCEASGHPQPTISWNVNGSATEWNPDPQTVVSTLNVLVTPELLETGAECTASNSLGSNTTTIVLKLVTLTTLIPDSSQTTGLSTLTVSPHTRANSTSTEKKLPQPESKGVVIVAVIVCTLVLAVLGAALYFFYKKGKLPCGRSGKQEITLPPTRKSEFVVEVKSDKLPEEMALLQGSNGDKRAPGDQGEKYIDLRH


What was measured:
[1] = target: T1, Recombined murine CD146-His protein (mouse); assay: pull-down; His-CD146-ECD or His-CD146^D4-5 incubated with BMDM cell lysates in the presence of mIgG or AA98 (50 ug/ml); bound CD36 detected by immunoblot with anti-CD36; only the target purified
[2] = target: T2, CD146 (endogenous, in bone marrow-derived macrophages) (mouse (endogenous in BMDMs)); assay: co-IP; endogenous proteins in BMDM lysates; IP with anti-CD146 mAb or anti-CD36 and protein G-agarose, immunoblot; buffer 150 mM NaCl, 50 mM Tris pH 8.0, 0.1% SDS, 0.5% deoxycholate, 1% NP-40; also after oxLDL (50 ug/ml) for the indicated times and with anti-CD146 AA98
[3] = target: CD36 (endogenous, in bone marrow-derived macrophages) (mouse (endogenous in BMDMs)) (UniProt Q08857); assay: as above

| Molecule | binding [1] | binding [2] | binding [3] |
| --- | --- | --- | --- |
| CD36 (endogenous, in bone marrow-derived macrophages) (from UniProt Q08857 1-472) (receptor) | binds | binds | – |
| CD146 (endogenous, in bone marrow-derived macrophages) (receptor, UniProt Q8R2Y2 24-648) VPGEEKQPVPTPDLVEAEVGSTALLKCGPSRASGNFSQVDWFLIHKERQILIFRVHQGKGQREPGEYEHRLSLQDSVATLALSHVTPHDERMFLCKSKRPRLQDHYVELQVFKAPEEPTIQANVVGIHVDRQELREVATCVGRNGYPIPQVLWYKNSLPLQEEENRVHIQSSQIVESSGLYTLKSVLSARLVKEDKDAQFYCELSYRLPSGNHMKESKEVTVPVFYPAEKVWVEVEPVGLLKEGDHVTIRCLTDGNPQPHFTINKKDPSTGEMEEESTDENGLLSLEPAEKHHSGLYQCQSLDLETTITLSSDPLELLVNYVSDVQVNPTAPEVQEGESLTLTCEAESNQDLEFEWLRDKTGQLLGKGPVLQLNNVRREAGGRYLCMASVPRVPGLNRTQLVSVGIFGSPWMALKERKVWVQENAVLNLSCEASGHPQPTISWNVNGSATEWNPDPQTVVSTLNVLVTPELLETGAECTASNSLGSNTTTIVLKLVTLTTLIPDSSQTTGLSTLTVSPHTRANSTSTEKKLPQPESKGVVIVAVIVCTLVLAVLGAALYFFYKKGKLPCGRSGKQEITLPPTRKSEFVVEVKSDKLPEEMALLQGSNGDKRAPGDQGEKYIDLRH | – | – | binds |

Source: publication PMC5339843
